Laboratory results published in paper PMC3228759.
For at least one entry, the source does not settle the construct or the ends of the probe.

System: RBM3 (rRBM3)
Experiment: EMSA
Details: 30-300 ng rRBM3, tRNA and heparin; EMSA: 5 mM Tris pH 7.4, 12.5 mM NaCl, 0.05 mM EDTA, 0.05 mg/ml tRNA, 0.05 mg/ml heparin, 0.01% Igepal, 10 µl, 125 fmol RNA, 4°C 30 min; recombinant protein; label: 32P; letters put together from the description

GAGACAGAGCGGUGCCUUAGCAGCACGUAAAUAUUGGCGUUAAGAUUCUGAAAUUACCUCCAGUAUUGACUGUGCUGCUGAAGUAAGGUU [pre-miR-16]
binding result: binds

GAGACAGGCCAGGCUGAGGUAGUAGUUUGUACAGUUUGAGGGUCUAUGAUACCACCCGGUACAGGAGAUAACUGUACAGGCCACUGCCUUGCCAGG [pre-let-7g]
binding result: binds
